Laboratory results reported in paper PMC3954757, “Novel Potent Imidazo[1,2-a]pyridine-N-Glycinyl-Hydrazone Inhibitors of TNF-α Production: In Vitro and In Vivo Studies” (PLoS ONE, 2014).

How the values were obtained:
[1] = test system: murine peritoneal macrophages; assay: Cell viability by MTT assay; assay type: cell-based, mouse
Method: The peritoneal macrophage were obtained and plated as described above. The cells were incubated with the vehicle or compounds for 20 hours when was added 200 µL of RPMI medium containing 0.5 mg/mL MTT […] (3-(4,5-dimethylthiazol-2-yl)-2,5-diphenyltetrazolium bromide) followed by 4 hour of incubation at 37°C in a 5% CO2 atmosphere. After incubation supernatants were discarded and 200 µL DMSO (dimethylsulfoxide) were added to solubilize the MTT-formazan crystals. The optical density was measured in a microplate reader at 490 nm. The control groups consisted of cells with medium plus vehicle used to dissolve the substances and was considered as 100% of viable cells. Results are expressed as percentage of viable cells when compared with control groups.

TNF-α production = assay: LPS-induced TNF-α production in culture of mice peritoneal macrophage (ELISA); conditions: Mus musculus, read-out: TNF-α IC50

Q: Which results are given for `C[S+]([O-])c1ccc(-c2nc(-c3ccncc3)c(-c3ccc(F)cc3)[nH]2)cc1` (stereo not drawn) [SB-203580, reference compound]?
A: IC50 ([1]; Mus musculus, Peritoneal macrophage, read-out: % of cell viability IC50): 9.7 µM; Selectivity Index (SI) ([1]; SI = cytotoxicity IC50/anti-TNF-α IC50): 44.0; IC50 (TNF-α production): 0.22 µM
